Measured values reported in PMC5773591, “Structural basis of trans-synaptic interactions between PTPδ and SALMs for inducing synapse formation” (Nature Communications, 2018).
Results are given in words; binding and its absence hold for the method and conditions named. For part of these data: Binding calls can cover weak binding; strength is not graded here. Where a sequence is shown, tags or fusion partners need not be part of it. One block for each substance: values may come before it.

Columns and labels:
[1] = target: T1, mouse SALM2 LRR–Ig-His6 (residues 32–390) (mouse) (UniProt Q2WF71); assay: crystal structure; co-crystals of PTPδ Ig1–Fn1 with SALM5 LRR–Ig (70 µM each) and of PTPδ Ig1–Ig3 with SALM2 LRR–Ig (57 µM each), sitting drop vapor diffusion, 20 °C; two complexes in the asymmetric unit (2:2); both purified
T1 sequence: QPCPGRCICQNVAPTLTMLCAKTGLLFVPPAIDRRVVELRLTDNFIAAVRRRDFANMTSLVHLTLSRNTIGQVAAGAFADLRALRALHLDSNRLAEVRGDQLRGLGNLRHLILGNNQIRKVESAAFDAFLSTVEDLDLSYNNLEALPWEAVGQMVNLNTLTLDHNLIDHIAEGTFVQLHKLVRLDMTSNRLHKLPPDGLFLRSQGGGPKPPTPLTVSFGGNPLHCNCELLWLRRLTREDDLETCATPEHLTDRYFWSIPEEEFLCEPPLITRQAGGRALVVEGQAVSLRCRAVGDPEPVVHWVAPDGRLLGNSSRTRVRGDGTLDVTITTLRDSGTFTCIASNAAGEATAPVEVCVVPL

[2] = target: T2, human SALM5 LRR–Ig-His6 (residues 18–378) (human) (UniProt Q96NI6); assay: as above
T2 sequence: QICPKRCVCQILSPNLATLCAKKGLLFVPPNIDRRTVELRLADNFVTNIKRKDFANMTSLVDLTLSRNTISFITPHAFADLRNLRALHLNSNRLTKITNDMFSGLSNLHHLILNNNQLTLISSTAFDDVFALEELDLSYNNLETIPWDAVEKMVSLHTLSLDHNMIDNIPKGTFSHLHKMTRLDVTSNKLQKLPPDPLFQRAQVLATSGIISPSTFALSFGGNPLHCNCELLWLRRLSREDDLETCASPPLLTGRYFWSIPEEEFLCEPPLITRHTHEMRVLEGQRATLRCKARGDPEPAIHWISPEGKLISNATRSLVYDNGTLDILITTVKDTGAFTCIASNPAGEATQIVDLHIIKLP

[3] = target: T2, human SALM5 LRR–Ig-His6 (residues 18–378) (human); assay: SPR; Biacore T200, 25 °C, 10 mM Hepes-Na (pH 7.5), 200 mM NaCl, 0.05% Tween20; SALM5 proteins immobilised on a CM5 chip by amino coupling; PTPδ proteins injected as analytes (0.1–260 μM); both purified

binding [1]: binds
Substance: mouse PTPδ Ig1–Ig3 (residues 28–325) (domain or fragment)

binding [2]: binds
Substance: mouse PTPδ Ig1–Fn1 (A9B+)-His6 (domain or fragment)

Substance: mouse PTPδ Ig1–Fn1 (A9B+)-His6 L141A (domain or fragment)
binding [3]: no binding (tested: analyte series 0.1–260 μM (methods))
